Patent publication US9452154B2, “Methods for treating HCV” (Gilead Sciences, Inc., priority 2010, dated 2016)
Some of these results come from one statement about several compounds together. Some ranges recur; such a range may be that of the whole group of compounds.

Tested on: GT1b and GT1a mutant replicons
Assay: Biological Example 8: summary of cross resistance of mutant replicons
Assay type: cell-based, HCV
Procedure: GT1b and GT1a replicons carrying Renilla Luciferase reporter were used to generate the mutant replicons. The mutations were introduced into the replicon construct by site-directed mutagenesis and confirmed by sequencing. Mutant replicon RNAs were generated from DNA by in vitro transcription and transfected into Huh-7 Lunet or C1 cells
Compounds were serially diluted 1:3 in 100% DMSO (Sigma). These serial dilutions were added to the cells at a 1:200 dilution to achieve a final concentration of 0.5% DMSO in a total volume of 200 μL. […] EC50 values were calculated using Prism.
For comparison, a fold change of 0-3 is considered “sensitive”, a fold change of 3-10 is considered “low”, a fold change of 10-50 is considered “medium” and a fold change of greater than […] is considered “high”.

[1] = dual class mutants that confer resistance to PI's and NS5A inhibitors
[2] = dual class mutants that confer resistance to PI's and Compound 1

Molecule	susceptibility of mutants [1]	susceptibility of mutants [2]
Fc1ccccc1-c1nc2ccn(Cc3ccc(-c4ccc(C(F)(F)F)cc4C(F)(F)F)nn3)cc-2n1 [Compound 1, 5-((6-(2,4-bis(trifluoromethyl)phenyl)pyridazin-3-yl)methyl)-2-(2-fluorophenyl)-5H-imidazo[4,5-c]pyridine]	sensitive (a fold change of 0-3 is considered “sensitive”)	–
CC(C)OC(=O)[C@H](C)N[P@](=O)(OC[C@H]1O[C@@](C#N)(c2ccc3c(N)ncnn23)[C@](C)(O)[C@@H]1OC(=O)C(C)C)Oc1ccccc1 [Compound 4]	sensitive (a fold change of 0-3 is considered “sensitive”)	sensitive (a fold change of 0-3 is considered “sensitive”)
CC1=CC[C@H](C(=O)N(c2cc(C#CC(C)(C)C)sc2C(=O)O)[C@H]2CC[C@](O)(CO[C@H]3CCOC3)CC2)CC1 [Compound 5, 5-(3,3-dimethylbut-1-yn-1-yl)-3-[(cis-4-hydroxy-4-{[(3S)-tetrahydrofuran-3-yloxy]methyl}cyclohexyl){[(1R)-4-methylcyclohex-3-en-1-yl]carbonyl}amino]thiophene-2-carboxylic acid]	sensitive (a fold change of 0-3 is considered “sensitive”)	sensitive (a fold change of 0-3 is considered “sensitive”)
COC(=O)N[C@H](C(=O)N1CC2(CC2)C[C@H]1c1ncc(-c2ccc3c(c2)C(F)(F)c2cc(-c4ccc5nc([C@@H]6[C@H]7CC[C@H](C7)N6C(=O)[C@@H](NC(=O)OC)C(C)C)[nH]c5c4)ccc2-3)[nH]1)C(C)C [Compound 6, (1-{3-[6-(9,9-Difluoro-7-{2-[5-(2-methoxycarbonylamino-3-methyl-butyryl)-5-aza-spiro[2.4]hept-6-yl]-3H-imidazol-4-yl}-9H-fluoren-2-yl)-1H-benzoimidazol-2-yl]-2-aza-bicyclo[2.2.1]heptane-2-carbonyl}-2-methyl-propyl)-carbamic acid methyl ester]	–	sensitive (a fold change of 0-3 is considered “sensitive”)
NC(=O)c1ncn([C@@H]2O[C@H](CO)[C@@H](O)[C@H]2O)n1 [Ribavirin, 1-β-D-ribofuranosyl-1H-1,2,4-Triazole-3-carboxamide, reference compound]	sensitive (a fold change of 0-3 is considered “sensitive”)	sensitive (a fold change of 0-3 is considered “sensitive”)
IFN-α [reference compound]	sensitive (a fold change of 0-3 is considered “sensitive”)	sensitive (a fold change of 0-3 is considered “sensitive”)
